According to publication doi:10.1101/2024.01.10.574961:
No constants are given. Whether binding was seen depends on the method and setting. In cells and extracts the contact can be indirect. Binding calls can cover weak binding; strength is not graded here. Where a sequence is shown, tags or fusion partners need not be part of it.

Amino acid sequences for entries named in this document (tags omitted). A change or cut given only in a name is not applied to a line headed by its entry.
UniProt Q9Y7U6: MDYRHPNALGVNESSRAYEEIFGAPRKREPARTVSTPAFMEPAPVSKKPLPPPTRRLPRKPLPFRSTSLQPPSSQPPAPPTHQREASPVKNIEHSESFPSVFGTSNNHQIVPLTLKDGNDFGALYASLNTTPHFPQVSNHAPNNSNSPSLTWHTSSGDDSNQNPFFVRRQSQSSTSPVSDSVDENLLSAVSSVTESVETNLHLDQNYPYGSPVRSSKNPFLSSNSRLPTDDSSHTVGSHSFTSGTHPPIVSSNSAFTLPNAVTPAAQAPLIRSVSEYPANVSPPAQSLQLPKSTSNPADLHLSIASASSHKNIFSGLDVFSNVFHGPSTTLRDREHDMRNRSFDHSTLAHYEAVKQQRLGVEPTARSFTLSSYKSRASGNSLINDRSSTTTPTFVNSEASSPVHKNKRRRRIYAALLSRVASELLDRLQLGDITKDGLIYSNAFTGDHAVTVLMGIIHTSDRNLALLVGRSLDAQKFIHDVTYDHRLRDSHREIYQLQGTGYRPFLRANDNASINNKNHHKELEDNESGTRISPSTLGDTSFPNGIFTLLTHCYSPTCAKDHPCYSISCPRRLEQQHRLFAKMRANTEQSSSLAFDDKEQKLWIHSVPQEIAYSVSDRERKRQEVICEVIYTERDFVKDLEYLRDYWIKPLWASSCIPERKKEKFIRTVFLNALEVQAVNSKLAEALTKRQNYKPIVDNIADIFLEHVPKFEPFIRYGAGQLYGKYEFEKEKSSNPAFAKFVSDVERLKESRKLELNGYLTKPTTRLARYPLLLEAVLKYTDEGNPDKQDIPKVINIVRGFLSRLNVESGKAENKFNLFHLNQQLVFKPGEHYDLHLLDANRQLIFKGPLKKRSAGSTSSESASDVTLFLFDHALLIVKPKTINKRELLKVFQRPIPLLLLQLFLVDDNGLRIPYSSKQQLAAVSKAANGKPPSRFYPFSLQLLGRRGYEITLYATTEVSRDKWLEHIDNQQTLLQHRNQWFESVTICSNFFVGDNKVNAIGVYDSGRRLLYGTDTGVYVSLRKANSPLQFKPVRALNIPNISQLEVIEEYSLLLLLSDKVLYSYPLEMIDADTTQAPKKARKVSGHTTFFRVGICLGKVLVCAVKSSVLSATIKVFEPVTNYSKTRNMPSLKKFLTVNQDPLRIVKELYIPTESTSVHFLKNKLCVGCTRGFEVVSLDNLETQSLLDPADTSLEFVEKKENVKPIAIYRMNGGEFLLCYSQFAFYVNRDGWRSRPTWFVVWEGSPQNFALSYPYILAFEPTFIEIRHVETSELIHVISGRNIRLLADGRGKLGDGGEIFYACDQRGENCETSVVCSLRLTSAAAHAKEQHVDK

Molecular target: T1, GST-Tea4 (S. pombe) (UniProt O60132)
T1 sequence: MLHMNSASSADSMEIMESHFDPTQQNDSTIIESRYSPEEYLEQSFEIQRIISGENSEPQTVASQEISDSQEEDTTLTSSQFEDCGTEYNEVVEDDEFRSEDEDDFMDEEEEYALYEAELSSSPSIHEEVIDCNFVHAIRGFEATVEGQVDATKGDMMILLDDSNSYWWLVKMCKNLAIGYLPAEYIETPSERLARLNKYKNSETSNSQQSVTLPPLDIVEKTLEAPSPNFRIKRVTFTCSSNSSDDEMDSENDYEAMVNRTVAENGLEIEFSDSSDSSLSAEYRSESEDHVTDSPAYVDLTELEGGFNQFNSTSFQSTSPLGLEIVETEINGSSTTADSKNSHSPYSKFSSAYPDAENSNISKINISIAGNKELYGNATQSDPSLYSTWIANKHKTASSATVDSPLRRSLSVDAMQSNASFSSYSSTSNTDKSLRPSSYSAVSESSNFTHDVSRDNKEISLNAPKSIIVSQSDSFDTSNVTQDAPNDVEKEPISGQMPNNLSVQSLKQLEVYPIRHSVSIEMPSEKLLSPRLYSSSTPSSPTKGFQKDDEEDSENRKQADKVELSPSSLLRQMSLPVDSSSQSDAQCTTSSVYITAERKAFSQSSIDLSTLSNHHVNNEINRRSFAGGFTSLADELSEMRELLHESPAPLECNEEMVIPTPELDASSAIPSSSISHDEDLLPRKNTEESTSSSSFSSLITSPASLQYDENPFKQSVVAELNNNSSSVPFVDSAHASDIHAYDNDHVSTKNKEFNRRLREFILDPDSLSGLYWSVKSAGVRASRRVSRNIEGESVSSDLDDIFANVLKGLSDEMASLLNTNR
Test: pull-down

binding	Substance
binds	Rgf1ΔPH-GFP (from UniProt Q9Y7U6)
binds	Rgf1ΔPTTR-HA (from UniProt Q9Y7U6)
